From the supplement of paper PMC10849652
This is one part of the list.

The chains behind the UniProt entries cited, without tags or fusion partners. Where a name states a change or a piece, a line headed by the entry shows the natural chain unless it says otherwise.
UniProt O75052: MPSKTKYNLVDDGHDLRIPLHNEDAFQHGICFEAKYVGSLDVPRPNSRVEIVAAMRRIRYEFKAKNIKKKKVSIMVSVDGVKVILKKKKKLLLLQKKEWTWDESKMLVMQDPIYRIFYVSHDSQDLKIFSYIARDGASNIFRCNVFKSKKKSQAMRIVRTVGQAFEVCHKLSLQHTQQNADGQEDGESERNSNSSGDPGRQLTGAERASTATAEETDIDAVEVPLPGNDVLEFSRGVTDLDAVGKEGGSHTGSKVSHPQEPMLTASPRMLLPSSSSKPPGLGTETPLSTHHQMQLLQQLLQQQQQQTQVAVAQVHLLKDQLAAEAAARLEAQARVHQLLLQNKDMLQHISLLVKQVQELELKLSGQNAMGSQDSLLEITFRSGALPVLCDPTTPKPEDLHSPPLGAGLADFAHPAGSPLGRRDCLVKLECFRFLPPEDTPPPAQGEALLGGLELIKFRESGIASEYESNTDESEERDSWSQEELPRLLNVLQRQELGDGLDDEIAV
UniProt Q8IVD9: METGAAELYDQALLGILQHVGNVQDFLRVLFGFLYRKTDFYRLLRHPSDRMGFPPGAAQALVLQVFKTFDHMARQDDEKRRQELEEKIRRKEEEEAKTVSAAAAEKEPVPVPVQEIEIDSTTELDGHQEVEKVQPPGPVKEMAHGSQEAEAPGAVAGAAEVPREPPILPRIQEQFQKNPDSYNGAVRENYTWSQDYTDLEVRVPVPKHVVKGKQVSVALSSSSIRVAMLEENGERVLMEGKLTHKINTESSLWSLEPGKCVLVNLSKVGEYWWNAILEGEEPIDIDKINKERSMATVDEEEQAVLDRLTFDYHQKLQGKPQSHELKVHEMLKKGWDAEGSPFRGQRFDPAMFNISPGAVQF
UniProt Q9UHY1: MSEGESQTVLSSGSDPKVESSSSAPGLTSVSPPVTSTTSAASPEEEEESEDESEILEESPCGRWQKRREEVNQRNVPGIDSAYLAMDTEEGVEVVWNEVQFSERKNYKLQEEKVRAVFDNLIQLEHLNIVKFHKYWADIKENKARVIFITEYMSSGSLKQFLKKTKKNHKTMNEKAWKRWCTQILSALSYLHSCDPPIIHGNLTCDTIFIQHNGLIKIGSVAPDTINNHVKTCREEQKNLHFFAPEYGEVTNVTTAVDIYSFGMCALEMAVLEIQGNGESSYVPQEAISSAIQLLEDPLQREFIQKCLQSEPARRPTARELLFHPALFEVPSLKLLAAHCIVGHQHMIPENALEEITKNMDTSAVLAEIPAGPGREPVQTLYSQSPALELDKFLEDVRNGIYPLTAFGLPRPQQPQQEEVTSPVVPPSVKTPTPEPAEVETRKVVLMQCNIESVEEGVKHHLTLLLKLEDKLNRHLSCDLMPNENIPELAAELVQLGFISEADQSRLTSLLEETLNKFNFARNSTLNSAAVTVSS
UniProt O60361, whole entry, looked up: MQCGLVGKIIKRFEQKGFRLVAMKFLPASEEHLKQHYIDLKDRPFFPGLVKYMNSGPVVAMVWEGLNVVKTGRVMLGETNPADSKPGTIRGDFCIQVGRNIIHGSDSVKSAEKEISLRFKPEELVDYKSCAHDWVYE
UniProt Q969T7: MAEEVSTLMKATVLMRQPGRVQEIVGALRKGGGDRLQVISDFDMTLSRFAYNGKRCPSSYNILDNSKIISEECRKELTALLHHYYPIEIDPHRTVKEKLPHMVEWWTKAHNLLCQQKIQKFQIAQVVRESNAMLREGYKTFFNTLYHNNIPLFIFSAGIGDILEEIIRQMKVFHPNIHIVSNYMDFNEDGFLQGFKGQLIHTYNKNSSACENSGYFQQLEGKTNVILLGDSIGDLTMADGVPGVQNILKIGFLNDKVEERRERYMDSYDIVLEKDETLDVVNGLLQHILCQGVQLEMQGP
UniProt Q76FK4: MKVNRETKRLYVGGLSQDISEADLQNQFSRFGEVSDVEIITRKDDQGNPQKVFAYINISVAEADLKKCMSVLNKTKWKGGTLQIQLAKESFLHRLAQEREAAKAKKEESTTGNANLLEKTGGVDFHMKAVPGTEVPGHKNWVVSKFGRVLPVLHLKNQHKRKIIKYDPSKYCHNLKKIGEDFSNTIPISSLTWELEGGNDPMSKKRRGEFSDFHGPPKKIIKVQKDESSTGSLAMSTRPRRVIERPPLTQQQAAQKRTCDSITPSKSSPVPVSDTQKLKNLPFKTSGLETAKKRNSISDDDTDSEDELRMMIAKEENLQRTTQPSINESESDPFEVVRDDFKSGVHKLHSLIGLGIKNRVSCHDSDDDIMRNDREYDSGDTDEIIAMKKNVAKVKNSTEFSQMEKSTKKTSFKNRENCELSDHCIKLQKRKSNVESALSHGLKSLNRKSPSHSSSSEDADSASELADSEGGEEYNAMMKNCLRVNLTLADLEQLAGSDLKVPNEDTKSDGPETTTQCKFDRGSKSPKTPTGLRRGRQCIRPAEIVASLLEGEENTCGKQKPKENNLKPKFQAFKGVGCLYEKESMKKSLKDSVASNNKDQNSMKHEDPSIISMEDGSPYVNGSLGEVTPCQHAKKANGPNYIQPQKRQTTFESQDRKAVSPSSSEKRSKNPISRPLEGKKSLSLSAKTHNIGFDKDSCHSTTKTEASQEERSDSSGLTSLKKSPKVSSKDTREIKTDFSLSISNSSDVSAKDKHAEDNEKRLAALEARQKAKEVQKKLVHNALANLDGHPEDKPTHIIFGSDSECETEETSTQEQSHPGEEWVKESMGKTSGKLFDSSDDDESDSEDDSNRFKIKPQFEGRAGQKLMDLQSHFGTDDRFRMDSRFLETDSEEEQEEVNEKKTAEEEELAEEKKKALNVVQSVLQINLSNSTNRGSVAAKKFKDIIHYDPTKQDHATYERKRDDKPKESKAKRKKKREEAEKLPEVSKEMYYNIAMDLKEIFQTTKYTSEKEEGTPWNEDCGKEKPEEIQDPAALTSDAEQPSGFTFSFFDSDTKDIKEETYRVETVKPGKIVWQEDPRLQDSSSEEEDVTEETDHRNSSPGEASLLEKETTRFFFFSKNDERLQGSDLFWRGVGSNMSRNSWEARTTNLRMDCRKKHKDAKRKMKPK
UniProt Q12980: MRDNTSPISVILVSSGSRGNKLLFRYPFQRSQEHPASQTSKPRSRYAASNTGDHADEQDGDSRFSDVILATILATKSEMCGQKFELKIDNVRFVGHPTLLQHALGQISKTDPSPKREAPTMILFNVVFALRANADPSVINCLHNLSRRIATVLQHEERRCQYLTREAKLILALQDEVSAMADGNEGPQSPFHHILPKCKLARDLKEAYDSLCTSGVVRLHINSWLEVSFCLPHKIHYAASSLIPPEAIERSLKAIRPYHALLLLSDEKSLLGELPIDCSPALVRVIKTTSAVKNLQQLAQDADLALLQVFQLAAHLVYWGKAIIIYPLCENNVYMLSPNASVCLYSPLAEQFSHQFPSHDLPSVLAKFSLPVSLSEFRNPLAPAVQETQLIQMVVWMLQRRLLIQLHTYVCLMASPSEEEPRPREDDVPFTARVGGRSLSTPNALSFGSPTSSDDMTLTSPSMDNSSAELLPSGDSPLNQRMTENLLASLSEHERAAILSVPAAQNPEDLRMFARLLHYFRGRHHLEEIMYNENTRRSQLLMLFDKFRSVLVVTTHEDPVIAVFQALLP
UniProt Q9NZJ9: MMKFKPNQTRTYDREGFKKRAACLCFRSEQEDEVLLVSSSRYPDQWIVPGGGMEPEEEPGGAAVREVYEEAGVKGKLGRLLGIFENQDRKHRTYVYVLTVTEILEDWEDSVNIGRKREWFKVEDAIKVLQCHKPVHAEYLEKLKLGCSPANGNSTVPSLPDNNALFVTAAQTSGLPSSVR
UniProt Q8WV22: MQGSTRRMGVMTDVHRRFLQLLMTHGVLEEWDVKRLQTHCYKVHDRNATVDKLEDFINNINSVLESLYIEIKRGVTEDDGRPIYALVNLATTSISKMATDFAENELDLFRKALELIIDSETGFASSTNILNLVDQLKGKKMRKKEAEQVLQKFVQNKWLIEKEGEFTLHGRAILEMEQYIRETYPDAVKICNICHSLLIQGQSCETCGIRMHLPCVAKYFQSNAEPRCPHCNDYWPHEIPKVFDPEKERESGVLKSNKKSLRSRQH
UniProt P49757: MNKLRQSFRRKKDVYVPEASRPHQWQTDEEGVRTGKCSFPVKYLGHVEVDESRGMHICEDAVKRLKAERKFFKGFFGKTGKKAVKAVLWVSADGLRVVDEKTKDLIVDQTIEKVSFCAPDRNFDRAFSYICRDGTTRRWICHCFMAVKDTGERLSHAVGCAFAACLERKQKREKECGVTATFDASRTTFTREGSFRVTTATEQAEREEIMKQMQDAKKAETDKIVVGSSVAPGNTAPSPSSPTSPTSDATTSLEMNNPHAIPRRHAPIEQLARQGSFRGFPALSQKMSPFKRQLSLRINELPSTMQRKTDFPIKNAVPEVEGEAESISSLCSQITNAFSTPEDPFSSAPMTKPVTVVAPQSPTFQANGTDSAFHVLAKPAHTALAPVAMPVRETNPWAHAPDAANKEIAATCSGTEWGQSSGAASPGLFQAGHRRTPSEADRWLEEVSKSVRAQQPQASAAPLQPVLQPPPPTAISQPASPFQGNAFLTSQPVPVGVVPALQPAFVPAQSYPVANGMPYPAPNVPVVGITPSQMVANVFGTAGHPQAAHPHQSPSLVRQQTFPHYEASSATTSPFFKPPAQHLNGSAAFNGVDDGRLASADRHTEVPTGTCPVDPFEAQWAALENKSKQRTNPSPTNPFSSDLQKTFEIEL
UniProt Q9Y639: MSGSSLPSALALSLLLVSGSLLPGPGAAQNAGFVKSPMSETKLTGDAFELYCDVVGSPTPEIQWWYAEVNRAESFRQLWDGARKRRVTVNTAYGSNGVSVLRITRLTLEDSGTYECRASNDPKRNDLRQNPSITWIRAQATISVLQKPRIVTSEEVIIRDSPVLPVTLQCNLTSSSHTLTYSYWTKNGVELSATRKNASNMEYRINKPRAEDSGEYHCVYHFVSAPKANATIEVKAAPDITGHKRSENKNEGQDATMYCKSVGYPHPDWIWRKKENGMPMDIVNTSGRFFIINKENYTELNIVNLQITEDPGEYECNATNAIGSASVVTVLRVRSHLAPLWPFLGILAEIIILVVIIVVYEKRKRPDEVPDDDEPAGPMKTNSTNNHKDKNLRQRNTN
UniProt P46087: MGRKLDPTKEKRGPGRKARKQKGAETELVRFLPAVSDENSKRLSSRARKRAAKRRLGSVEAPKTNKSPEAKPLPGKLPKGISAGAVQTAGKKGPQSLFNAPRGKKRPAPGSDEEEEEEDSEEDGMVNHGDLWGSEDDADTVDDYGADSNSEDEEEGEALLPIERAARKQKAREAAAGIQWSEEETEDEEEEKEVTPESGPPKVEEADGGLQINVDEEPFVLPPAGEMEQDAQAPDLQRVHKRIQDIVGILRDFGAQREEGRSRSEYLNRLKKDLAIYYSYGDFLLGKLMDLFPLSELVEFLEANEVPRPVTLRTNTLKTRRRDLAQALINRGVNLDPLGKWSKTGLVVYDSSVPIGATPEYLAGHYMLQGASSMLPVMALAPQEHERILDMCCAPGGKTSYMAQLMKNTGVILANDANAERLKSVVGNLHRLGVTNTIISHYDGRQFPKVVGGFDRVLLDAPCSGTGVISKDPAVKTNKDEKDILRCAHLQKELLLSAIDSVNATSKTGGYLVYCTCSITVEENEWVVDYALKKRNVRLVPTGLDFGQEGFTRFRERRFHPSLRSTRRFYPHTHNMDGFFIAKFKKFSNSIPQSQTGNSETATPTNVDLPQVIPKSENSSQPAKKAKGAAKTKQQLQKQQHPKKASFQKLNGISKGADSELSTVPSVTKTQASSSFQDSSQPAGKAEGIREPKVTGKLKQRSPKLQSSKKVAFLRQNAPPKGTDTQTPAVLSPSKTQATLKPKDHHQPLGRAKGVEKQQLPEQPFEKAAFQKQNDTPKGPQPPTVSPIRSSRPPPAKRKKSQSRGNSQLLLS
UniProt Q9BSC4: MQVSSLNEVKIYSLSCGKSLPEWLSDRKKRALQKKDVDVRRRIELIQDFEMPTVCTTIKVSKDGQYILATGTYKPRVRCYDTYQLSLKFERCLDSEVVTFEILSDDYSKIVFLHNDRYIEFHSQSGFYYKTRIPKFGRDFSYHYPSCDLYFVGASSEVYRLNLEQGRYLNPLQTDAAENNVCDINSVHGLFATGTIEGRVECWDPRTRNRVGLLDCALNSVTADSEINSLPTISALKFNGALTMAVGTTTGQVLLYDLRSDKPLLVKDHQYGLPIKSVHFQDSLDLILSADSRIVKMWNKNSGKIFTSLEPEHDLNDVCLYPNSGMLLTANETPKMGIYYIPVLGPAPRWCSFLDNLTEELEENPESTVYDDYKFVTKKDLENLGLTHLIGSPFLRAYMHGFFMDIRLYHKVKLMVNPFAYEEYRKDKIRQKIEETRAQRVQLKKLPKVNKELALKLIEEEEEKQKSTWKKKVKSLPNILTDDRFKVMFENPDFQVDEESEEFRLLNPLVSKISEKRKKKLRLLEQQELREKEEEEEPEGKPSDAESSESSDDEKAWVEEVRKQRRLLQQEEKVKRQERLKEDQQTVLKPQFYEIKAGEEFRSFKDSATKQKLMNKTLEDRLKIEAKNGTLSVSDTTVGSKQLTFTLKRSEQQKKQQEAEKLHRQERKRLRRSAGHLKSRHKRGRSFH

Each target was assayed with NCC(=O)Nc1ccc(-n2nc(C(F)(F)F)cc2-c2ccc3c(ccc4ccccc43)c2)cc1 (assay: log2 fold change, soluble protein after heating vs DMSO (PISA); higher = thermal stabilisation; K562 lysate, 10 uM; active = over 0.2 and 3.5 SD of the protein, either way, in both replicates (recomputed)).
Outline: (§1)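 A 30 min treatment with 10 μM compound was applied to crude K562 extract at 1 mg/mL protein in PBS pH 7.4 with 1 mM MgCl2. Heating for 3 min spanned 48°C-58°C, after which aliquots were pooled, adjusted to 0.5% NP-40 at 4°C and spun at 21,000xg for 90 min. TMTpro 16plex LC-MS/MS of the supernatant, with channel sums equalised, gave values recorded as log-two fold change in thermal stability against solvent controls, from duplicates.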
In the case of NOL3 isoform 3 (UniProt O60936), the log2 fold change is reported as inactive: 0.013.
NOS1AP (UniProt O75052) was tested, and the log2 fold change was inactive: 0.248.
For NUDCD3 (UniProt Q8IVD9), the log2 fold change was inactive: -0.035.
With NOC4L (UniProt Q9BVI4) the log2 fold change was inactive: 0.039.
With NUDC (UniProt Q9Y266) the log2 fold change was inactive: 0.007.
For NRBP1 (UniProt Q9UHY1), the log2 fold change was inactive: 0.013.
NME2P1 (UniProt O60361) was tested, and the log2 fold change was inactive: 0.18.
NT5C3B (UniProt Q969T7) was tested, and the log2 fold change was inactive: -0.036.
NME6 (UniProt O75414) was tested, and the log2 fold change was inactive: 0.045.
With NOP58 (UniProt Q9Y2X3) the log2 fold change was inactive: -0.015.
In the case of NMU (UniProt P48645), the log2 fold change is reported as inactive: 0.018.
NSMCE3 (UniProt Q96MG7) was tested, and the log2 fold change was inactive: 0.005.
With NT5C3A (UniProt Q9H0P0) the log2 fold change was inactive: -0.03.
With NOL6 (UniProt Q9H6R4) the log2 fold change was inactive: 0.012.
In the case of NUP155 (UniProt O75694), the log2 fold change is reported as inactive: 0.016.
With NOL8 (UniProt Q76FK4) the log2 fold change was inactive: 0.023.
NPRL3 (UniProt Q12980) was tested, and the log2 fold change was inactive: -0.098.
NPLOC4 isoform 2 (UniProt Q8TAT6) was tested, and the log2 fold change was inactive: 0.
For NSUN4 (UniProt Q96CB9), the log2 fold change was inactive: -0.034.
NT5C (UniProt Q8TCD5) was tested, and the log2 fold change was inactive: 0.011.
With NUDT4 (UniProt Q9NZJ9) the log2 fold change was inactive: -0.144.
For NOS3 (UniProt P29474), the log2 fold change was inactive: 0.085.
For NSMCE1 (UniProt Q8WV22), the log2 fold change was inactive: 0.062.
In the case of NOSTRIN (UniProt Q8IVI9), the log2 fold change is reported as inactive: -0.083.
With NMRAL1 (UniProt Q9HBL8) the log2 fold change was inactive: -0.023.
With NUDT16 (UniProt Q96DE0) the log2 fold change was inactive: -0.028.
In the case of NUDT3 (UniProt O95989), the log2 fold change is reported as inactive: -0.015.
NTHL1 (UniProt P78549) was tested, and the log2 fold change was inactive: 0.082.
With NUMB (UniProt P49757) the log2 fold change was inactive: 0.
In the case of NUDT21 (UniProt O43809), the log2 fold change is reported as inactive: -0.024.
For NR2C2AP isoform 2 (UniProt Q86WQ0), the log2 fold change was inactive: 0.021.
For NPTN (UniProt Q9Y639), the log2 fold change was inactive: 0.067.
In the case of NME2 isoform 2 (UniProt P22392), the log2 fold change is reported as inactive: 0.035.
In the case of NT5C2 (UniProt P49902), the log2 fold change is reported as inactive: -0.035.
For NRBF2 (UniProt Q96F24), the log2 fold change was inactive: -0.008.
In the case of NOP2 isoform 4 (UniProt P46087), the log2 fold change is reported as inactive: 0.022.
For NOL10 (UniProt Q9BSC4), the log2 fold change was inactive: -0.046.
NSDHL (UniProt Q15738) was tested, and the log2 fold change was inactive: -0.031.

These targets were tested with O=C(CCCCCCC(=O)Nc1ccccc1)NO [vorinostat] in the same assay as above.
Outline: as §1
For NOL3 isoform 3 (UniProt O60936), the log2 fold change was inactive: 0.002.
NOS1AP (UniProt O75052) was tested, and the log2 fold change was inactive: -0.585.
For NUDCD3 (UniProt Q8IVD9), the log2 fold change was inactive: 0.046.
In the case of NOC4L (UniProt Q9BVI4), the log2 fold change is reported as inactive: -0.059.
NUDC (UniProt Q9Y266) was tested, and the log2 fold change was inactive: 0.052.
NRBP1 (UniProt Q9UHY1) was tested, and the log2 fold change was inactive: 0.157.
In the case of NME2P1 (UniProt O60361), the log2 fold change is reported as inactive: 0.
For NT5C3B (UniProt Q969T7), the log2 fold change was inactive: -0.1.
In the case of NME6 (UniProt O75414), the log2 fold change is reported as inactive: 0.062.
In the case of NOP58 (UniProt Q9Y2X3), the log2 fold change is reported as inactive: -0.081.
With NMU (UniProt P48645) the log2 fold change was inactive: 0.086.
For NSMCE3 (UniProt Q96MG7), the log2 fold change was inactive: -0.072.
In the case of NT5C3A (UniProt Q9H0P0), the log2 fold change is reported as inactive: -0.054.
With NOL6 (UniProt Q9H6R4) the log2 fold change was inactive: -0.126.
NUP155 (UniProt O75694) was tested, and the log2 fold change was inactive: -0.175.
NOL8 (UniProt Q76FK4) was tested, and the log2 fold change was inactive: 0.046.
In the case of NPRL3 (UniProt Q12980), the log2 fold change is reported as inactive: -0.153.
With NPLOC4 isoform 2 (UniProt Q8TAT6) the log2 fold change was inactive: 0.028.
NSUN4 (UniProt Q96CB9) was tested, and the log2 fold change was inactive: -0.123.
With NT5C (UniProt Q8TCD5) the log2 fold change was inactive: 0.103.
For NUDT4 (UniProt Q9NZJ9), the log2 fold change was inactive: -0.162.
In the case of NOS3 (UniProt P29474), the log2 fold change is reported as inactive: 0.189.
NSMCE1 (UniProt Q8WV22) was tested, and the log2 fold change was inactive: -0.168.
In the case of NOSTRIN (UniProt Q8IVI9), the log2 fold change is reported as active: -0.27.
NMRAL1 (UniProt Q9HBL8) was tested, and the log2 fold change was inactive: -0.009.
NUDT16 (UniProt Q96DE0) was tested, and the log2 fold change was inactive: 0.123.
NUDT3 (UniProt O95989) was tested, and the log2 fold change was inactive: 0.061.
In the case of NTHL1 (UniProt P78549), the log2 fold change is reported as inactive: 0.042.
For NUMB (UniProt P49757), the log2 fold change was active: -0.315.
With NUDT21 (UniProt O43809) the log2 fold change was inactive: 0.137.
In the case of NR2C2AP isoform 2 (UniProt Q86WQ0), the log2 fold change is reported as inactive: -0.101.
With NPTN (UniProt Q9Y639) the log2 fold change was inactive: 0.078.
For NME2 isoform 2 (UniProt P22392), the log2 fold change was inactive: 0.133.
NT5C2 (UniProt P49902) was tested, and the log2 fold change was inactive: 0.074.
With NRBF2 (UniProt Q96F24) the log2 fold change was inactive: -0.106.
NOP2 isoform 4 (UniProt P46087) was tested, and the log2 fold change was inactive: 0.113.
With NOL10 (UniProt Q9BSC4) the log2 fold change was inactive: -0.303.
NSDHL (UniProt Q15738) was tested, and the log2 fold change was inactive: 0.004.
